{"source": "PubChem BioAssay AID2685", "about": "(National Center for Advancing Translational Sciences (NCATS), 2010)", "assay": "qHTS Assay for Lipid Storage Modulators in Drosophila S3 Cells;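 for cell number change: cells counted by Cell Tracker Red CMTPX staining in the red channel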", "conditions": "BODIPY lipid droplet fluorescence, 18-24 h; for cell number change: measured here: cell count max response, cells fed with added oleic acid", "summary_of_the_method": "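Drosophila S3 cells got compounds at several concentrations plus oleic acid (400 uM solution). Laser-scanning cytometry with 488 nm excitation read lipid droplets at 500-530 nm and cells at 575-640 nm. Percent activity was relative to 20 uM Triacsin C.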", "key": {"[1]": {"conditions": "measured here: lipid fluorescence (Fed channel) AC50, cells fed with added oleic acid"}, "[2]": {"conditions": "measured here: cell number channel AC50, cells fed with added oleic acid"}}, "note": "This is one part of the list. Shown are side measurements of this screen, not its main read-out; they come without a call. The list favours compounds with an active or inconclusive main result. Words in brackets tell the shape of the fitted curve; partial curves, single points and poor fits give uncertain potencies."}
{"smiles": "COc1ccc(CCNC(=O)Cc2ccsc2)cc1", "values": [{"measurement": "AC50", "setting": "[1]", "result": "29.1 µM [rising, single point]"}]}
{"smiles": "CN(C)S(=O)(=O)c1ccc(Cl)c(C(=O)NC2CCN(Cc3ccccc3)C2)c1", "note": "(centres undefined)", "values": [{"measurement": "cell number change", "result": 4.2, "unit": "%"}]}
{"smiles": "S=C(Nc1ccc2nsnc2c1)N1CCCCCC1", "values": [{"measurement": "cell number change", "result": 19.2, "unit": "%"}, {"measurement": "AC50", "setting": "[1]", "result": "0.206 µM [falling, full curve, poor fit]"}]}
{"smiles": "COc1ccc(C(=O)C2CCCN(Cc3cccn3-c3ccc(Cl)cn3)C2)c(OC)c1", "note": "(centres undefined)", "values": [{"measurement": "cell number change", "result": -40.3, "unit": "%"}, {"measurement": "AC50", "setting": "[2]", "result": "16.4 µM [falling, single point]"}, {"measurement": "AC50", "setting": "[1]", "result": "29.1 µM [falling, single point]"}]}
{"smiles": "CC1(OC(=O)CCc2ccccc2)C(=O)C=C2C=C(c3ccc(C#N)cc3)N(CCN3CCOCC3)C=C2C1=O", "note": "(centres undefined)", "values": [{"measurement": "cell number change", "result": 22.6, "unit": "%"}, {"measurement": "AC50", "setting": "[1]", "result": "0.184 µM [rising, full curve, poor fit]"}]}
{"smiles": "Cc1ccc2cc3c(N)c(C(=O)N4CC(=O)Nc5ccccc54)sc3nc2c1", "values": [{"measurement": "cell number change", "result": 1.15, "unit": "%"}, {"measurement": "AC50", "setting": "[1]", "result": "29.1 µM [falling, single point]"}]}
{"smiles": "CC(C)(C)OC(=O)CC12CCCCC1NC(=O)O2", "note": "(centres undefined)", "values": [{"measurement": "cell number change", "result": 6.8, "unit": "%"}, {"measurement": "AC50", "setting": "[1]", "result": "1.46 µM [rising, partial curve]"}]}
{"smiles": "O=c1cc(N2CCc3ccccc32)[nH]c(=O)n1-c1ccc(Br)cc1", "values": [{"measurement": "cell number change", "result": 29.6, "unit": "%"}, {"measurement": "AC50", "setting": "[1]", "result": "2.06 µM [rising, partial curve, poor fit]"}]}
{"smiles": "CCC(C)C(=O)N1CCc2cc(-c3csc(N)n3)ccc21", "note": "(centres undefined)", "values": [{"measurement": "cell number change", "result": 9.82, "unit": "%"}, {"measurement": "AC50", "setting": "[1]", "result": "9.2 µM [rising, partial curve]"}]}
{"smiles": "Cn1c(N2CCN(c3ccccn3)CC2)nc2c1c(=O)n(Cc1ccc(Cl)cc1)c(=O)n2C", "values": [{"measurement": "cell number change", "result": -3.35, "unit": "%"}, {"measurement": "AC50", "setting": "[1]", "result": "0.517 µM [rising, partial curve]"}]}
{"smiles": "O=C(CSc1nnc(-c2cccnc2)o1)Nc1cccc(Cl)c1", "values": [{"measurement": "cell number change", "result": 42.3, "unit": "%"}, {"measurement": "AC50", "setting": "[2]", "result": "13 µM [rising, partial curve, poor fit]"}, {"measurement": "AC50", "setting": "[1]", "result": "1.84 µM [falling, full curve]"}]}
{"smiles": "Cc1ccc(-c2nc(=O)[nH]c3ccccc23)cc1", "values": [{"measurement": "cell number change", "result": 27.5, "unit": "%"}]}
{"smiles": "O=S(=O)(c1ccccc1)N1CCC(n2cnc3ccccc32)CC1", "values": [{"measurement": "cell number change", "result": -5.56, "unit": "%"}]}
{"smiles": "COc1cc(/C=C/c2ccc3c(Br)cc(Br)c(O)c3n2)ccc1O", "values": [{"measurement": "cell number change", "result": -26.6, "unit": "%"}, {"measurement": "AC50", "setting": "[2]", "result": "2.91 µM [falling, single point]"}, {"measurement": "AC50", "setting": "[1]", "result": "3.26 µM [falling, full curve]"}]}
{"smiles": "CCN(CC)S(=O)(=O)c1ccc(N(C)CCc2ccc(OC)c(OC)c2)nc1", "values": [{"measurement": "AC50", "setting": "[2]", "result": "0.58 µM [rising, single point]"}, {"measurement": "AC50", "setting": "[1]", "result": "29.1 µM [rising, single point]"}]}
{"smiles": "O=C(NCc1ccccc1)NC1(C(=O)N2CCN(c3ncccn3)CC2)CCCCC1", "values": [{"measurement": "cell number change", "result": -30.8, "unit": "%"}, {"measurement": "AC50", "setting": "[2]", "result": "32.6 µM [falling, single point]"}, {"measurement": "AC50", "setting": "[1]", "result": "1.84 µM [falling, full curve]"}]}
{"smiles": "CC(=O)c1ccccc1NC(=O)COC(=O)CSCC(=O)Nc1cc(C)on1", "values": [{"measurement": "cell number change", "result": -20.4, "unit": "%"}, {"measurement": "AC50", "setting": "[1]", "result": "8.2 µM [falling, partial curve, poor fit]"}]}
{"smiles": "Cc1ccc2nc(SCC(=O)Nc3cccc(S(=O)(=O)NC4=NCCCCC4)c3)[nH]c2c1", "values": [{"measurement": "cell number change", "result": -28.3, "unit": "%"}, {"measurement": "AC50", "setting": "[1]", "result": "29.1 µM [falling, single point]"}]}
{"smiles": "CC(C)c1nc2sc3c(=S)nc[nH]c3c2c2c1CCC2", "values": [{"measurement": "cell number change", "result": 17.9, "unit": "%"}, {"measurement": "AC50", "setting": "[2]", "result": "0.00461 µM [rising, full curve, poor fit]"}, {"measurement": "AC50", "setting": "[1]", "result": "0.00461 µM [rising, full curve, poor fit]"}]}
{"smiles": "O=C(CC(=O)NCc1ccc(Cl)cc1)NCc1ccccc1", "values": [{"measurement": "cell number change", "result": 18.1, "unit": "%"}, {"measurement": "AC50", "setting": "[2]", "result": "7.31 µM [rising, single point]"}]}
{"smiles": "O=C(C1CCC1)N1CCc2cc(S(=O)(=O)N3CCCCC3)ccc21", "values": [{"measurement": "cell number change", "result": 234, "unit": "%"}, {"measurement": "AC50", "setting": "[2]", "result": "0.146 µM [rising, single point]"}]}
{"smiles": "CCN(CC)S(=O)(=O)c1ccc(C(=O)Nc2ccc(Cc3ccncc3)cc2)cc1", "values": [{"measurement": "cell number change", "result": -41.9, "unit": "%"}, {"measurement": "AC50", "setting": "[2]", "result": "10.3 µM [falling, partial curve]"}, {"measurement": "AC50", "setting": "[1]", "result": "13 µM [falling, partial curve]"}]}
{"smiles": "COc1ccc(NS(=O)(=O)c2cccc(C(=O)N3CCN(c4ccccc4O)CC3)c2)cc1", "values": [{"measurement": "AC50", "setting": "[1]", "result": "4.61 µM [rising, partial curve]"}]}
{"smiles": "O=C(c1ccccc1)N1CCN2C(=O)c3ccccc3C12c1ccc(Cl)cc1", "note": "(centres undefined)", "values": [{"measurement": "cell number change", "result": -8.17, "unit": "%"}, {"measurement": "AC50", "setting": "[1]", "result": "3.66 µM [rising, partial curve]"}]}
{"smiles": "O=C(NCCN1CCOCC1)c1ccc(Cl)c([N+](=O)[O-])c1", "values": [{"measurement": "cell number change", "result": 32.8, "unit": "%"}, {"measurement": "AC50", "setting": "[2]", "result": "29.1 µM [rising, single point]"}]}
{"smiles": "CS(=O)(=O)N(CCC(=O)O)Cc1ccccc1", "values": [{"measurement": "cell number change", "result": -0.787, "unit": "%"}, {"measurement": "AC50", "setting": "[1]", "result": "0.0103 µM [falling, full curve]"}]}
{"smiles": "CCOC(=O)N1CCN(Cc2cccs2)CC1", "values": [{"measurement": "cell number change", "result": -1.65, "unit": "%"}, {"measurement": "AC50", "setting": "[1]", "result": "4.11 µM [falling, single point]"}]}
{"smiles": "CN(Cc1cn(C)nc1-c1ccc(Oc2ccccc2)cc1)Cc1cnc2ccccn12", "values": [{"measurement": "cell number change", "result": -20.4, "unit": "%"}]}
{"smiles": "COC(=O)[C@@H]1C[C@@]2(O)[C@@H](O)[C@@H](O)[C@@H](O)C[C@H]2N1Cc1ccc(-c2ccccc2)cc1", "values": [{"measurement": "cell number change", "result": -24.2, "unit": "%"}, {"measurement": "AC50", "setting": "[1]", "result": "1.84 µM [falling, full curve, poor fit]"}]}
{"smiles": "Cc1ccc(S(=O)(=O)N2CCN(C(=O)CSc3nnc(C)s3)C2)cc1", "values": [{"measurement": "cell number change", "result": -26.3, "unit": "%"}, {"measurement": "AC50", "setting": "[2]", "result": "0.326 µM [falling, full curve]"}, {"measurement": "AC50", "setting": "[1]", "result": "1.3 µM [falling, full curve]"}]}
{"smiles": "O=C(CN1CCN(Cc2ccccc2)CC1)N1CCCc2ccccc21", "values": [{"measurement": "cell number change", "result": 19.2, "unit": "%"}, {"measurement": "AC50", "setting": "[1]", "result": "5.17 µM [rising, partial curve, poor fit]"}]}
{"smiles": "O=C1NCCCc2c1oc1ccc(O)cc21", "values": [{"measurement": "cell number change", "result": -45, "unit": "%"}, {"measurement": "AC50", "setting": "[2]", "result": "14.6 µM [falling, partial curve, poor fit]"}]}
{"smiles": "CC(C)CNC(=O)COCc1cc(-c2ccc3c(c2)OCO3)on1", "values": [{"measurement": "AC50", "setting": "[1]", "result": "2.31 µM [rising, single point]"}]}
{"smiles": "CC/C(=N\\NC(=O)c1c(C)nc2ccccn12)c1ccc(Cl)cc1", "values": [{"measurement": "cell number change", "result": -38.9, "unit": "%"}, {"measurement": "AC50", "setting": "[1]", "result": "29.1 µM [rising, single point]"}]}
{"smiles": "Cc1ccc(N2CC(C(=O)Nc3cccc(F)c3)CC2=O)cc1", "note": "(centres undefined)", "values": [{"measurement": "cell number change", "result": 1.52, "unit": "%"}, {"measurement": "AC50", "setting": "[1]", "result": "0.731 µM [falling, full curve, poor fit]"}]}
{"smiles": "CC12C(=O)N(c3ccccn3)C(=O)C1C1C=CC2C1", "note": "(centres undefined)", "values": [{"measurement": "cell number change", "result": 1.66, "unit": "%"}, {"measurement": "AC50", "setting": "[1]", "result": "3.26 µM [falling, full curve, poor fit]"}]}
{"smiles": "O=C(NCCCN1CCCC1=O)c1cccc(NS(=O)(=O)c2ccccc2)c1", "values": [{"measurement": "cell number change", "result": 17.2, "unit": "%"}, {"measurement": "AC50", "setting": "[1]", "result": "29.1 µM [rising, single point]"}]}
